The values that follow come from publication PMC12090556.

Chains of the proteins cited; added tags and fusions are not shown. Residues count along the entry.
UniProt P08581, residues 25-1390: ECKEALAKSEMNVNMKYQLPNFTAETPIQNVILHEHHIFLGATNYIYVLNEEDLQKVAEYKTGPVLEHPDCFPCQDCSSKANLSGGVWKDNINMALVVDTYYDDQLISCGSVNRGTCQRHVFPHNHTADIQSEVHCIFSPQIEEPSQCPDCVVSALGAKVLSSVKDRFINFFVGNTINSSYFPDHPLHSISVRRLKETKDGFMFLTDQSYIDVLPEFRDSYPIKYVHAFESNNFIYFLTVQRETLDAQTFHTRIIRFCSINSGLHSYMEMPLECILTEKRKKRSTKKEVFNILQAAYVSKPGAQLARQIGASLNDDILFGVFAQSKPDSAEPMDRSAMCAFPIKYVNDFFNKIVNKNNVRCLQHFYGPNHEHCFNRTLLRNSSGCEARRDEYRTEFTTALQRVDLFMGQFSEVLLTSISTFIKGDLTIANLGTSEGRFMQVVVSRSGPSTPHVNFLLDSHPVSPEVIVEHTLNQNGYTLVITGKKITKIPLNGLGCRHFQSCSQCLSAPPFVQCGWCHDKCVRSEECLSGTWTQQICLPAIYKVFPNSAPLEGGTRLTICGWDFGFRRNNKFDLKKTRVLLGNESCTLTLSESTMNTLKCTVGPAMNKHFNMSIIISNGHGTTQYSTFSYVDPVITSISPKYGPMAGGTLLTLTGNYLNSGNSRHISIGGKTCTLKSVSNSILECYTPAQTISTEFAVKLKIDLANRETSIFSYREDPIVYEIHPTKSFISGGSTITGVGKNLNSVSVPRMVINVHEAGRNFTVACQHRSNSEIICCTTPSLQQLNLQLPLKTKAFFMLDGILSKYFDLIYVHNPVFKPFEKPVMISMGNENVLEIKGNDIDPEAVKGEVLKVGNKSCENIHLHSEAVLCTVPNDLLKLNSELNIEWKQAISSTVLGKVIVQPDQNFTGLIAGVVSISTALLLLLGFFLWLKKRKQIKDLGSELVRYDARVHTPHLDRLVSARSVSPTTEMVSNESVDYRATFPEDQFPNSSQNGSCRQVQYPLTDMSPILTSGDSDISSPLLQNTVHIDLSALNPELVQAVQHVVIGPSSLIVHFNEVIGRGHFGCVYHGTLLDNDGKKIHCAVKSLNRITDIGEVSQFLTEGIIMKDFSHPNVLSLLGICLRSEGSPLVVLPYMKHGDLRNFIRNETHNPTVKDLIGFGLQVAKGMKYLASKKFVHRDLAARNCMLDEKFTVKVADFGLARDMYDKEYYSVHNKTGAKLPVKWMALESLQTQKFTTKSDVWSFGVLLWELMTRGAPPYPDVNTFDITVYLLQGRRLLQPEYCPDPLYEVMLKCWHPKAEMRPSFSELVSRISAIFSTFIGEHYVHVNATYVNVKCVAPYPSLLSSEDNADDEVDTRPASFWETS

This test deals with T1, HHLA2-HA (UniProt Q9UM44).
T1 sequence (chain, glycosylated (N-linked; sites not named)): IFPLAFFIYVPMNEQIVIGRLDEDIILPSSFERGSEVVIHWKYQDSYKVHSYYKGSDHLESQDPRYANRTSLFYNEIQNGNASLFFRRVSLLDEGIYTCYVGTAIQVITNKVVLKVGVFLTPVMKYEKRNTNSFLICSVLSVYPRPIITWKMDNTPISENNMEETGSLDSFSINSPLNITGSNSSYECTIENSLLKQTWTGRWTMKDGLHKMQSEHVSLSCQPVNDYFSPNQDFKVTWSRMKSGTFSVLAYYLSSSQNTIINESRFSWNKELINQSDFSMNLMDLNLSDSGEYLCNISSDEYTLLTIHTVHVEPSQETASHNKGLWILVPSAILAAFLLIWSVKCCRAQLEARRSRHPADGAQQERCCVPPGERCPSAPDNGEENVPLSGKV
Nature of the test: affinity purification with mass spectrometry; anti-HA immunoprecipitates from HepG2-HHLA2-HA against HepG2-Vec cells; label-free, semi-quantitative mass spectrometry.

Results are given in words; binding and its absence hold for the method and conditions named. Binding seen in cells or lysates may run through a third protein. A yes stands for co-enrichment or nearness to the bait. Other partners may have been found. Sequences can lack the tags named with a protein.

Regarding “c-Met (from UniProt P08581 25-1390) (receptor)”, the binding result is given as “binds”.

B1: STT3A (enzyme, UniProt P46977 1-705)
chain: MTKFGFLRLSYEKQDTLLKLLILSMAAVLSFSTRLFAVLRFESVIHEFDPYFNYRTTRFLAEEGFYKFHNWFDDRAWYPLGRIIGGTIYPGLMITSAAIYHVLHFFHITIDIRNVCVFLAPLFSSFTTIVTYHLTKELKDAGAGLLAAAMIAVVPGYISRSVAGSYDNEGIAIFCMLLTYYMWIKAVKTGSICWAAKCALAYFYMVSSWGGYVFLINLIPLHVLVLMLTGRFSHRIYVAYCTVYCLGTILSMQISFVGFQPVLSSEHMAAFGVFGLCQIHAFVDYLRSKLNPQQFEVLFRSVISLVGFVLLTVGALLMLTGKISPWTGRFYSLLDPSYAKNNIPIIASVSEHQPTTWSSYYFDLQLLVFMFPVGLYYCFSNLSDARIFIIMYGVTSMYFSAVMVRLMLVLAPVMCILSGIGVSQVLSTYMKNLDISRPDKKSKKQQDSTYPIKNEVASGMILVMAFFLITYTFHSTWVTSEAYSSPSIVLSARGGDGSRIIFDDFREAYYWLRHNTPEDAKVMSWWDYGYQITAMANRTILVDNNTWNNTHISRVGQAMASTEEKAYEIMRELDVSYVLVIFGGLTGYSSDDINKFLWMVRIGGSTDTGKHIKENDYYTPTGEFRVDREGSPVLLNCLMYKMCYYRFGQVYTEAKRPPGFDRVRNAEIGNKDFELDVLEEAYTTEHWLVRIYKVKDLDNRGLSRT
As to B1, the binding entry was “binds”.
